The text below walks through data of patent US20050042631A1 (US Dept. of Health and Human Services, published 2005).

The test deals with T1, PC4 (positive cofactor 4), native, in the P11/0.85 M KCl fraction of HeLa cell nuclear extract (human, UniProt P53999 2-127).
T1 construct: Renatured on PVDF membrane after SDS-PAGE; also called 20 kDa protein
Nature of the test: Farwestern blot of HeLa nuclear extract P11 fractions.

B1: GST-K-p52 (other)
chain: MTRDFKPGDLIFAKMKGYPHWPARVDEVPDGAVKPPTNKLPIFFFGTHETAFLGPKDIFPYSENKEKYGKPNKRKGFNEGLWEIDNNPKVKFSSQQAATKQSNASSDVEVEEKETSVSKEDTDHEEKASNEDVTKAVDITTPKAARRGRKRKAEKQVETEEAGVVTTATASVNLKVSPKRGRPAATEVKIPKPRGRPKMVKQPCPSESDIITEEDKSKKKGQEGKQPKKQPKKDEEGQKEEDKPRKEPDKKEGKKEVESKRKNLAKTGVTSTSDSEEEGDDQEGEKKRKGGRNFQTAHRRNMLKGQHEKEAADRKRKQEEQMETEHQTTCNLQ
modifications: 32P-labeled by HMK where used as Farwestern probe
notes: The Nru I-EcoR V fragment of p52 cDNA was put in pGEX-2T(K); also called GST-p52; p52 probe; not shown: glutathione-S-transferase from the pGEX-2T(K) vector; heart muscle kinase (K) site and vector linker
On to B1, for which the binding result is “binds”.
